Amino acid sequences for entries named in this document (tags omitted). A change or cut given only in a name is not applied to a line headed by its entry.
UniProt Q6ZV73: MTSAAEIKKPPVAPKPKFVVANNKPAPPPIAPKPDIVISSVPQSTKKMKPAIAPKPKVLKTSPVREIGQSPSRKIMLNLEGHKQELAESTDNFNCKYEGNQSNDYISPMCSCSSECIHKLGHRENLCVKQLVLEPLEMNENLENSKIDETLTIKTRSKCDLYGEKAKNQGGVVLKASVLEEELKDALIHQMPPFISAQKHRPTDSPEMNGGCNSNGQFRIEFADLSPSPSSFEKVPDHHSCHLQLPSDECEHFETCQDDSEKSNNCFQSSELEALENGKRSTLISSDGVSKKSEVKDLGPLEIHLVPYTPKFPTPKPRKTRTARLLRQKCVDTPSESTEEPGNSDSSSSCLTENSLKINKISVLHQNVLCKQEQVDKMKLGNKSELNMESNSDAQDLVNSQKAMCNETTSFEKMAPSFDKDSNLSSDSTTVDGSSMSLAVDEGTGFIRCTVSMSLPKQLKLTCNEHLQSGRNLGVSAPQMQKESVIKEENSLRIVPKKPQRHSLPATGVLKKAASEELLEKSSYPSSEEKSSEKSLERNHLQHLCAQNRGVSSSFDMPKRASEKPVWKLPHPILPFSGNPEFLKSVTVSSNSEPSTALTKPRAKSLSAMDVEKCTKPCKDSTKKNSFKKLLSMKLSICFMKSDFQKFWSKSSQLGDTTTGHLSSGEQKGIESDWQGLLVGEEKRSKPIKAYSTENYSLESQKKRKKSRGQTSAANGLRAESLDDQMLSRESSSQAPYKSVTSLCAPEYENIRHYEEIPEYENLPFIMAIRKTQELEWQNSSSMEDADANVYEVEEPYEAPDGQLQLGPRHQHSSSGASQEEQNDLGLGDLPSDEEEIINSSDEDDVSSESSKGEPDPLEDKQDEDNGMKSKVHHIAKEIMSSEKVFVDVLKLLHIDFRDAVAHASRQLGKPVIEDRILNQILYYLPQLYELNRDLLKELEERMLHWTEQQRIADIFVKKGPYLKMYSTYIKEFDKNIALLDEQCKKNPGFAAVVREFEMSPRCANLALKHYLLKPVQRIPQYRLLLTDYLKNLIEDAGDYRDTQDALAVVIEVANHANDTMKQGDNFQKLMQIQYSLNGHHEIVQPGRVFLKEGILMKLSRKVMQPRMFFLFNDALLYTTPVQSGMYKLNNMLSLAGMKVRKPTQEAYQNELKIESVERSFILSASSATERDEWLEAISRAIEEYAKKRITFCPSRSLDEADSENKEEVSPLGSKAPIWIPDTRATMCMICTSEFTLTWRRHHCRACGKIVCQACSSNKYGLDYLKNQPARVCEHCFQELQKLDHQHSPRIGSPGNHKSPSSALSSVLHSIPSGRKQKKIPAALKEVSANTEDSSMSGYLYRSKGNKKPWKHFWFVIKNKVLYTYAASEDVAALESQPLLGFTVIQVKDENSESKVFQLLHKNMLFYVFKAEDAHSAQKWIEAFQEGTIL
UniProt Q7L273: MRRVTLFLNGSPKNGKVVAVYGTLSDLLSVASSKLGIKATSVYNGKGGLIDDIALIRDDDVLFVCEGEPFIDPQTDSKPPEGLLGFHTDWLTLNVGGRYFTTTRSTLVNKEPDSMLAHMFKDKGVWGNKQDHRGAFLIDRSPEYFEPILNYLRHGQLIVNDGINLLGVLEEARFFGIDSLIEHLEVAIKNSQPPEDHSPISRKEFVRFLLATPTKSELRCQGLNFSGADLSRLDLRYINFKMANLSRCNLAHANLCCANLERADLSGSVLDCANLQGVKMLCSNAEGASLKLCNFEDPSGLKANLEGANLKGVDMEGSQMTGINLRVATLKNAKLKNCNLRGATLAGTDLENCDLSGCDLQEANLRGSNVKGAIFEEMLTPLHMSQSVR
UniProt Q7Z6V5: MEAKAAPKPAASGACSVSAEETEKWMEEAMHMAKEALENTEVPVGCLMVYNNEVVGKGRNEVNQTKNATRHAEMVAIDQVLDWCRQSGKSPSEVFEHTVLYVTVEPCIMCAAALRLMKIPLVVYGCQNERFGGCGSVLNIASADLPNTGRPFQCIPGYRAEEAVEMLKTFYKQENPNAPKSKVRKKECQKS
UniProt Q7Z5Q1: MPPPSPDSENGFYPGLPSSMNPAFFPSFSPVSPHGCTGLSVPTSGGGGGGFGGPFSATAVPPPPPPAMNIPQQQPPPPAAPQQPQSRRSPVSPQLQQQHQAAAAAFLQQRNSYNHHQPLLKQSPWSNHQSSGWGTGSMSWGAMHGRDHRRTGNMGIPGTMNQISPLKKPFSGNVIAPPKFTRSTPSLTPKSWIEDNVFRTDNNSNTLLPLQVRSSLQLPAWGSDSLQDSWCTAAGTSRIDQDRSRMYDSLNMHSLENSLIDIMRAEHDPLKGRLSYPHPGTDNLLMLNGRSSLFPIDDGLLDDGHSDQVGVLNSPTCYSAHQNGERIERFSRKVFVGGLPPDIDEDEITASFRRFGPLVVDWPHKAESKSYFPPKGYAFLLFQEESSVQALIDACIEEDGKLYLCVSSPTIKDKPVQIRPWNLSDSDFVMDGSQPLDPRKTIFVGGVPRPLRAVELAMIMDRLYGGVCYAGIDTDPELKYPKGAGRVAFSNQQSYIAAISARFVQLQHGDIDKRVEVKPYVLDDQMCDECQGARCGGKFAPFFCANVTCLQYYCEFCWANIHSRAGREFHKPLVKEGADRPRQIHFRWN
UniProt Q7L2R6: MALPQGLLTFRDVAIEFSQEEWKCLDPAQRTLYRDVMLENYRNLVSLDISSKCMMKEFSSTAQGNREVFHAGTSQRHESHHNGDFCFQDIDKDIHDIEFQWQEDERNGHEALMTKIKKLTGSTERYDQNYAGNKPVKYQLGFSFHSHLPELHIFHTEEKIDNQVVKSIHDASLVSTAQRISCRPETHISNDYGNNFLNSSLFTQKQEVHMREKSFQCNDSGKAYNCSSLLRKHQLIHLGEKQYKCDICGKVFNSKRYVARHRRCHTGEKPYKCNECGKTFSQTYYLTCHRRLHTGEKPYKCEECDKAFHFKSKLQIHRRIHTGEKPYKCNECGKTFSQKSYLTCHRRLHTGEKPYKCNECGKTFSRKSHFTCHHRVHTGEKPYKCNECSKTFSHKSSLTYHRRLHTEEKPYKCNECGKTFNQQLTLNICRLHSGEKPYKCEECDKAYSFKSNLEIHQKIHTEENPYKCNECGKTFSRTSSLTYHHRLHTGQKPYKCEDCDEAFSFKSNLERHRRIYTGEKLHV
UniProt Q70EK9: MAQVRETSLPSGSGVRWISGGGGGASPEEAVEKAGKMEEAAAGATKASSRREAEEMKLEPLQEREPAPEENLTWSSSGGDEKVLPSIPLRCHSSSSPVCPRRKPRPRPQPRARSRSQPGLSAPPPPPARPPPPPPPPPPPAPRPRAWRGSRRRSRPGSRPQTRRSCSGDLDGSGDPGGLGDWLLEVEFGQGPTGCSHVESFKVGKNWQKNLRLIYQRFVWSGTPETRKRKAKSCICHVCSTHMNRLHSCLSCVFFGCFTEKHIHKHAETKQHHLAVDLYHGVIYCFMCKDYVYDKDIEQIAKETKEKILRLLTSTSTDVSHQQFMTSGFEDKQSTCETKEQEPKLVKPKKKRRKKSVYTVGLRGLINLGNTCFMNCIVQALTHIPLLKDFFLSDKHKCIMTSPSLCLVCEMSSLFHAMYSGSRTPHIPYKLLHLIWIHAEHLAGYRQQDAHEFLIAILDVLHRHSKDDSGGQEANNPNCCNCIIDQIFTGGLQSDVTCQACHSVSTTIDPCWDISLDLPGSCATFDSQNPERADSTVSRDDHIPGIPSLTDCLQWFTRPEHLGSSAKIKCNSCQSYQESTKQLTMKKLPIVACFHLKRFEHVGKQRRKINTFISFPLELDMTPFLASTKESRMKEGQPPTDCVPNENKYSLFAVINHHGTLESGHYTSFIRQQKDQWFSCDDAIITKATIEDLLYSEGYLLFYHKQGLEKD
UniProt Q86TA1: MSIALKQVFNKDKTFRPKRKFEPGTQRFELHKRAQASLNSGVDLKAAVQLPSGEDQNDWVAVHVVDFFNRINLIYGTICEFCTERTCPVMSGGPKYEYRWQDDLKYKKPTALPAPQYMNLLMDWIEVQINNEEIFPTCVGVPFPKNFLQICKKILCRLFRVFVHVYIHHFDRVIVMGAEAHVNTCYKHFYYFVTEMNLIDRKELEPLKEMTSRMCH
UniProt Q7Z4G1, whole entry: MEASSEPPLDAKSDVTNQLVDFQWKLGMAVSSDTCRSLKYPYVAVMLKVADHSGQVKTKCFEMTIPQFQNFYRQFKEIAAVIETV
UniProt Q76L83: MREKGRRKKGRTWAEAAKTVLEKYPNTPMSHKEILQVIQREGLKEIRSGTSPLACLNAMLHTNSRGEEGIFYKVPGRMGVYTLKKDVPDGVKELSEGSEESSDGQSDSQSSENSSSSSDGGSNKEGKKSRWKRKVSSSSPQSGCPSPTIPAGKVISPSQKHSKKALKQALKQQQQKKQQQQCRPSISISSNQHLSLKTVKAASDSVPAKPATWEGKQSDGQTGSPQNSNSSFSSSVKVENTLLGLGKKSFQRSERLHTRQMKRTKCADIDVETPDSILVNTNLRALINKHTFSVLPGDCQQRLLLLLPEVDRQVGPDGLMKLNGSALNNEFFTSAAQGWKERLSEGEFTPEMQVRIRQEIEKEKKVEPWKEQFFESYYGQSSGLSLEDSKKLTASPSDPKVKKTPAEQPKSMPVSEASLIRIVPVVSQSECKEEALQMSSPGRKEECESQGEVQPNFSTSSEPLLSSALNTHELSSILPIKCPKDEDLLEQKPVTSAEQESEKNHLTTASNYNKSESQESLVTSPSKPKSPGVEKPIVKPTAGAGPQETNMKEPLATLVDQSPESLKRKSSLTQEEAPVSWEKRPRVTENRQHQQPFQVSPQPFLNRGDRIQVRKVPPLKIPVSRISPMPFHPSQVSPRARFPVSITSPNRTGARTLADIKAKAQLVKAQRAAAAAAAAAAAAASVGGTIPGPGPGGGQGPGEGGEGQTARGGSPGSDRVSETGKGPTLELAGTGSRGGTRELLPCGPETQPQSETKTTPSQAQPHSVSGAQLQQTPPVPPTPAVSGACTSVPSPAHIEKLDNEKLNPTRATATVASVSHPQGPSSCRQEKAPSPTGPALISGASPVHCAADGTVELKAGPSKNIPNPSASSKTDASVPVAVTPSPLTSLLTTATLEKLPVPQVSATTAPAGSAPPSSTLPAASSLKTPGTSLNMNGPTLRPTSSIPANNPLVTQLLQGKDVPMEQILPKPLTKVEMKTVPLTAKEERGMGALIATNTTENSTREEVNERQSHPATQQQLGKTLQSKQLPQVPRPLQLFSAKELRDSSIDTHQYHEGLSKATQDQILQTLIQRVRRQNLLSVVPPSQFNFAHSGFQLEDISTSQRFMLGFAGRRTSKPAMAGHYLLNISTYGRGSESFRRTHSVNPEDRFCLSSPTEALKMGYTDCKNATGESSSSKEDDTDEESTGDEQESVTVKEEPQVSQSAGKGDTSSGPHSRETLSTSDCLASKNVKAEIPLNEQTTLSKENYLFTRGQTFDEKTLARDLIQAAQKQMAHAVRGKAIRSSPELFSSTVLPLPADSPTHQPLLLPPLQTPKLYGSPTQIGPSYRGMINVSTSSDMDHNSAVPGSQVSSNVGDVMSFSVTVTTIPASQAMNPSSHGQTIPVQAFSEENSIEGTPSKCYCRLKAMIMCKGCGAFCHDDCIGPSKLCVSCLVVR
UniProt Q71SY5: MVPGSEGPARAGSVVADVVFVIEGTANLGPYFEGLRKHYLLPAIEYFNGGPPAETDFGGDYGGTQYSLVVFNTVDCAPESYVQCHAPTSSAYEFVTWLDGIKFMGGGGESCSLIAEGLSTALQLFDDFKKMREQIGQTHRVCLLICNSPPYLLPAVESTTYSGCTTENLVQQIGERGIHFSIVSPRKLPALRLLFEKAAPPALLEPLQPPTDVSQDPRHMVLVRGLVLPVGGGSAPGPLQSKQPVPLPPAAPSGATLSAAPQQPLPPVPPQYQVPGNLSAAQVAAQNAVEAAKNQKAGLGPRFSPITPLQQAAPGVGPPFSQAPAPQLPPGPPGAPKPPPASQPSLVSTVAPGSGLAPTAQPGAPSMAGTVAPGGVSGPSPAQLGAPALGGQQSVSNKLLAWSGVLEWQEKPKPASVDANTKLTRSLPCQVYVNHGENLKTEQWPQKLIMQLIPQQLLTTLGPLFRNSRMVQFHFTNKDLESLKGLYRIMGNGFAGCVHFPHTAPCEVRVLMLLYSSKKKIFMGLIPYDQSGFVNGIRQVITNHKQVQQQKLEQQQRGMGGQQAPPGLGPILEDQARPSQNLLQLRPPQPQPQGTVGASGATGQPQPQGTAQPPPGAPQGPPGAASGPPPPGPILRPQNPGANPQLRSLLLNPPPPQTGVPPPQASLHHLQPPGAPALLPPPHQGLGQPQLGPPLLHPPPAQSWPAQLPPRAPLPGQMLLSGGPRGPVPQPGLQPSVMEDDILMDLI
UniProt Q7Z4H3: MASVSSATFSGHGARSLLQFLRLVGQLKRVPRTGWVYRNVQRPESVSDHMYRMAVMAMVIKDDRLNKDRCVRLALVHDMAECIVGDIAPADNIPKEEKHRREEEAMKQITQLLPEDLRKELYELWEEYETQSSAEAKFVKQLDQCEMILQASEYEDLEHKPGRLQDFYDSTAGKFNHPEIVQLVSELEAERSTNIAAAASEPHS

This is one part of the list. Small differences around the control level are noise.
The targets below were run with Cc1nc(Nc2ncc(C(=O)Nc3c(C)cccc3Cl)s2)cc(N2CCN(CCO)CC2)n1 [dasatinib] (assay: log2 fold change of tryptic peptide abundance, ligand vs vehicle (limited proteolysis) (log2 ratio); higher = more trypsin-susceptible (destabilized)). Conditions: ligand concentration: 5 uM; sample: K562 cleared lysate.
Target “UniProt Q7L523 (peptide sequence: DVHRFEK, peptide start residue: 224)” has a log2 fold change of -0.672.
With “ZNF813 (peptide sequence: HESHHTGDFR, peptide start residue: 77) (UniProt Q6ZN06)” the log2 fold change was -0.85.
In the case of “FGD6 (peptide sequence: ITFCPSR, peptide start residue: 1190) (UniProt Q6ZV73)”, the log2 fold change is reported as -0.461.
“DPP9 (peptide sequence: KYSGLIVNKAPHDFQFVQK, peptide start residue: 43) (UniProt Q86TI2)” gave a log2 fold change of 0.433.
Work on “KCTD9 (peptide sequence: ANLEGANLK, peptide start residue: 303) (UniProt Q7L273)” yielded a log2 fold change of 0.182.
“PIWIL4 (peptide sequence: IQASPLPR, peptide start residue: 24) (UniProt Q7Z3Z4)” gave a log2 fold change of -0.272.
For “USP34 (peptide sequence: MISSGHELTTDYDEK, peptide start residue: 1281) (UniProt Q70CQ2)”, the log2 fold change was 0.153.
“DHX32 (peptide sequence: ANSLVMQPISQSQAEIRK, peptide start residue: 372) (UniProt Q7L7V1)” showed a log2 fold change of 0.321.
With “UniProt Q6ZMW2 (peptide sequence: AALVTSNSTHPK, peptide start residue: 228)” the log2 fold change was -0.129.
“CREB3L2 (peptide sequence: SEEKALKK, peptide start residue: 290) (UniProt Q70SY1)” showed a log2 fold change of 0.336.
“ADAT2 (peptide sequence: HAEMVAIDQVLDWCR, peptide start residue: 71) (UniProt Q7Z6V5)” was tested, and the log2 fold change was -0.132.
In the case of “CPEB2 (peptide sequence: EFHKPLVK, peptide start residue: 708) (UniProt Q7Z5Q1)”, the log2 fold change is reported as -0.124.
With “UniProt Q7L2R6 (peptide sequence: SIHDASLVSTAQR, peptide start residue: 167)” the log2 fold change was -0.124.
With “UniProt Q86U38 (peptide sequence: EAPETGEER, peptide start residue: 74)” the log2 fold change was -0.291.
“TTC7B (peptide sequence: LNYVEGDYK, peptide start residue: 106) (UniProt Q86TV6)” was tested, and the log2 fold change was 0.291.
“COPS6 (peptide sequence: SQEGRPVQVIGALIGK, peptide start residue: 60) (UniProt Q7L5N1)” showed a log2 fold change of -0.323.
“ADAMTSL4 (peptide sequence: GQGPRPQTSPETLPLYR, peptide start residue: 99) (UniProt Q6UY14)” gave a log2 fold change of 0.202.
Target “UniProt Q70EK9 (peptide sequence: SVYTVGLR, peptide start residue: 356)” has a log2 fold change of 0.209.
“RANBP10 (peptide sequence: AGLGSCSFAR, peptide start residue: 605) (UniProt Q6VN20)” gave a log2 fold change of -0.108.
In the case of “UBR3 (peptide sequence: GGNLCSGGASTAGK, peptide start residue: 1467) (UniProt Q6ZT12)”, the log2 fold change is reported as 0.621.
For “DNMBP (peptide sequence: HHTSSVYSISER, peptide start residue: 509) (UniProt Q6XZF7)”, the log2 fold change was -0.266.
“INTS8 (peptide sequence: TIVQSSFPVK, peptide start residue: 153) (UniProt Q75QN2)” gave a log2 fold change of -0.153.
“UniProt Q6ZN19 (peptide sequence: GSLLTVHQIVHTR, peptide start residue: 185)” gave a log2 fold change of 0.492.
Target “MOB3B (peptide sequence: TCPVMSGGPK, peptide start residue: 86) (UniProt Q86TA1)” has a log2 fold change of 0.093.
In the case of “BCOR (peptide sequence: SPPIPYPR, peptide start residue: 648) (UniProt Q6W2J9)”, the log2 fold change is reported as -0.216.
Work on “FASTKD5 (peptide sequence: DLLGLHNMK, peptide start residue: 713) (UniProt Q7L8L6)” yielded a log2 fold change of -0.279.
Target “PHLDB2 (peptide sequence: LREQEMER, peptide start residue: 601) (UniProt Q86SQ0)” has a log2 fold change of -0.164.
“UBE2Q1 (peptide sequence: GNTLLLQHLKR, peptide start residue: 141) (UniProt Q7Z7E8)” showed a log2 fold change of -0.221.
For “COMMD6 (peptide sequence: SLKYPYVAVMLK, peptide start residue: 37) (UniProt Q7Z4G1)”, the log2 fold change was -0.541.
In the case of “UniProt Q7Z3E2 (peptide sequence: TLCQPNEHNNR, peptide start residue: 52)”, the log2 fold change is reported as 0.431.
With “ASXL2 (peptide sequence: QHQQPFQVSPQPFLNRGDR, peptide start residue: 592) (UniProt Q76L83)” the log2 fold change was -0.618.
“QSOX2 (peptide sequence: VKHHHPAV, peptide start residue: 691) (UniProt Q6ZRP7)” was tested, and the log2 fold change was -0.0945.
Work on “MED25 (peptide sequence: LLAWSGVLEWQEKPKPASVDANTK, peptide start residue: 399) (UniProt Q71SY5)” yielded a log2 fold change of -0.171.
“UniProt Q6ZNG1 (peptide sequence: SFQCNESGK, peptide start residue: 214)” gave a log2 fold change of 0.142.
Target “TLK2 (peptide sequence: RKPPAMGQAPPATNEQK, peptide start residue: 345) (UniProt Q86UE8)” has a log2 fold change of 0.0755.
In the case of “SRCAP (peptide sequence: GVDEAPSSTLK, peptide start residue: 2876) (UniProt Q6ZRS2)”, the log2 fold change is reported as 0.226.
“NFXL1 (peptide sequence: RQQAELEAFENR, peptide start residue: 852) (UniProt Q6ZNB6)” was tested, and the log2 fold change was -0.261.
“HDDC2 (peptide sequence: MAVMAMVIKDDR, peptide start residue: 53) (UniProt Q7Z4H3)” was tested, and the log2 fold change was 0.153.

From the supplement of paper PMC12819154, “High-throughput peptide-centric local stability assay extends protein–ligand identification to membrane proteins, tissues and bacteria” (Nature Structural & Molecular Biology, 2025)
